Results are given in words; binding and its absence hold for the method and conditions named. Binding seen in cells or lysates may run through a third protein. A yes stands for co-enrichment or nearness to the bait. Other partners may have been found. Where a sequence is shown, tags or fusion partners need not be part of it.
B1: Sgf29 (protein, UniProt Q9W2I4 1-289)
chain: MPLTAESAAQQIQDRLKDIQQNIHNVDEERRRAENSIASLVRSLHATNQKVKPLLKASLTEAAQEEATIRAALAKIHEIRSIRNERRIQARNAGNKEAIRRGALMKMVQLSAQTLPLFVGKLGERAPALCGAIPAEGNYVAKVGDNVAALAKGIDEEENWILAEVVQFLHRQNKYDVIDIDEEQKDRHVLSKRKVIPLPLMRANPETDGHALFPKDTVVMALYPQTTCFYKAIVHRLPQTATEDYEVLFEDSSYTNGYAEPLPVAQRYVIAYRPTKKGAGSGSGNLSSA

Amino acid sequences for entries named in this document (tags omitted).
UniProt O76216: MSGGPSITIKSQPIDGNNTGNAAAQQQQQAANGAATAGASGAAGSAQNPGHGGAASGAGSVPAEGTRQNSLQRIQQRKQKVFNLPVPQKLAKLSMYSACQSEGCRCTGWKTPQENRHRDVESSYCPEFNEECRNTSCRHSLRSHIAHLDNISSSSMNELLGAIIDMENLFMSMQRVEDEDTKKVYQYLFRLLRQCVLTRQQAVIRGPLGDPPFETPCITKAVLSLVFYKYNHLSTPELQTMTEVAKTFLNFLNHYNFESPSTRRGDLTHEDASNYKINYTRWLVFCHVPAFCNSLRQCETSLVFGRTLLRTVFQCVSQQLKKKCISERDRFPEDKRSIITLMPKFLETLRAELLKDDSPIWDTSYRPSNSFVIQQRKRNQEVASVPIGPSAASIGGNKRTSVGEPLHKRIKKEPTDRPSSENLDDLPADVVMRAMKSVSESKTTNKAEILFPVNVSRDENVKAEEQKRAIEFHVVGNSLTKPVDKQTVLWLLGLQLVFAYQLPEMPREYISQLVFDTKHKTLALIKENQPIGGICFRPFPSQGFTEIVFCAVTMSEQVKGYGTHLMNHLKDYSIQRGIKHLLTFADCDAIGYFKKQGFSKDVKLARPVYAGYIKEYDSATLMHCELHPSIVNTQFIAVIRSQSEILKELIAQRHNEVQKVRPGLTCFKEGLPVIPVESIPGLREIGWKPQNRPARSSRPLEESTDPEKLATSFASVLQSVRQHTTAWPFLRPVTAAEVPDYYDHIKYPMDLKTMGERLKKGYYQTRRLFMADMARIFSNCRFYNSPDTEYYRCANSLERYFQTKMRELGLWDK

Target: T1, Ada2b isoform B, C-terminally HA2-Flag2 tagged (Ada2b-PBH2F2) (Drosophila) (UniProt Q8I8V0)
T1 sequence: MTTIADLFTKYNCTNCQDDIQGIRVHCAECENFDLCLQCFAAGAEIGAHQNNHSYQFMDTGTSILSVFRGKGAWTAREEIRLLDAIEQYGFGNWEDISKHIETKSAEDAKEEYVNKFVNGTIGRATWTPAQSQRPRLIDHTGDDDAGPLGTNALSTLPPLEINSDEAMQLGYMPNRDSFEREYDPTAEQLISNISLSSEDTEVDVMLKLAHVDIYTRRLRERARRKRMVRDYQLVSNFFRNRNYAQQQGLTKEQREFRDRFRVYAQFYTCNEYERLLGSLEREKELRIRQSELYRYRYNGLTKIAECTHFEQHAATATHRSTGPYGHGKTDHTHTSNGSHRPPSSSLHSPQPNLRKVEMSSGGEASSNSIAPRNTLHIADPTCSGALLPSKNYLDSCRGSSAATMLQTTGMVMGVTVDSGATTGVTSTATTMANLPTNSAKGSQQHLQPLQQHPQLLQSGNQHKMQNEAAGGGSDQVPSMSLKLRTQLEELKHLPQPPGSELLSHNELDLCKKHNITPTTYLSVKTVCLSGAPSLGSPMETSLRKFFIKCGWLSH
Test: affinity purification with mass spectrometry; Flag affinity purification of Ada2b-PBH2F2 from S2 nuclear extract, Superose 6 gel filtration, MudPIT of input, fractions 12+14 (SAGA) and 18+19 (ADA) and mock

binding	Molecule
binds	Gcn5 (from UniProt O76216 1-813) (enzyme)
binds	Ada3 (Drosophila (endogenous in S2 cells))
binds	B1
